The values below come from article PMC8384837.

What all share (details): yeast three-hybrid, YBZ-1, SC-Leu-His + 0.5 mM 3-AT, 4 days
The target in assay [1] is T1, PUM1 PUF domain R1-QFR R2-VFQ R7-NPG S863Q + R864F + Q867R + N899V + Y900F + S1079N + N1080P + E1083G (UniProt Q14671).
T1 sequence: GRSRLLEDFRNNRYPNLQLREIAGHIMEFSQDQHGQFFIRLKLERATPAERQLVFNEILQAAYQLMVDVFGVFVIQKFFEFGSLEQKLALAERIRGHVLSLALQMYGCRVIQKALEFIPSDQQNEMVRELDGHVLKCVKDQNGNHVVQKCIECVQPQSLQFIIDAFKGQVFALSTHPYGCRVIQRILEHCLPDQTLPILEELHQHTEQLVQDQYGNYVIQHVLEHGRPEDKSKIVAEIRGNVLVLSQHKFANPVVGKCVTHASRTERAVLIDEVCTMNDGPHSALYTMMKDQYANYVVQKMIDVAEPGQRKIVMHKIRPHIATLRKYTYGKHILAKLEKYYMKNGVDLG

Assay [2] addresses T2, PUM1 PUF domain R2-VFQ R3-THE R4-TFR N899V + Y900F + C935T + R936H + Q939E + N971T + H972F + Q975R (UniProt Q14671).
T2 sequence: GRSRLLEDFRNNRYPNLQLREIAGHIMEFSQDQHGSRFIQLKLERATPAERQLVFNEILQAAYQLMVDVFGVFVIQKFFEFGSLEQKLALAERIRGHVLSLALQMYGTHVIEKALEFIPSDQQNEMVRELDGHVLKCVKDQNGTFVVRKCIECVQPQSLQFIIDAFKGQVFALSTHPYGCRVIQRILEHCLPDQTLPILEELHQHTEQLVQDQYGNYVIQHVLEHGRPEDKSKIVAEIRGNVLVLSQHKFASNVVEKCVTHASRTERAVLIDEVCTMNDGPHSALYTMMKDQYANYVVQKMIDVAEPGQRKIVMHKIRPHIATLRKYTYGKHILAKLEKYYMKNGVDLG

Assay [3] deals with T3, PUM1 PUF domain R3-THE R4-TFR C935T + R936H + Q939E + N971T + H972F + Q975R (UniProt Q14671).
T3 sequence: T2 sequence with V72N, F73Y

Assay [4] deals with T4, PUM1 PUF domain R3-THE R4-TFR R7-NPG C935T + R936H + Q939E + N971T + H972F + Q975R + S1079N + N1080P + E1083G (Homo sapiens) (UniProt Q14671).
T4 sequence: T2 sequence with V72N, F73Y, S252N, N253P, E256G

Assay [5] has as its target T5, PUM1 PUF domain R5-PHQ R6-SWD C1007P + R1008H + N1043S + Y1044W + Q1047D (UniProt Q14671).
T5 sequence: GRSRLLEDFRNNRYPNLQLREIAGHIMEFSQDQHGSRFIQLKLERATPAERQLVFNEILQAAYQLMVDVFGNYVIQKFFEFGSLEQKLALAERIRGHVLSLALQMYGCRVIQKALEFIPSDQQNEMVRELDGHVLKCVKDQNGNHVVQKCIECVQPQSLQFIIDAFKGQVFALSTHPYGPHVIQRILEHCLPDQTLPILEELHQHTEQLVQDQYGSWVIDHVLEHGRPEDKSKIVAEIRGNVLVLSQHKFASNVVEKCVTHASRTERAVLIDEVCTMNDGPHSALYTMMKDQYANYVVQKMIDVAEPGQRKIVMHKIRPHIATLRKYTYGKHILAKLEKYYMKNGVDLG

In assay [6] the target is T6, PUM1 PUF domain R6-SWD R7-NPG N1043S + Y1044W + Q1047D + S1079N + N1080P + E1083G (Homo sapiens) (UniProt Q14671).
T6 sequence: T5 sequence with P180C, H181R, S252N, N253P, E256G

In assay [7] the target is T7, PUM1 PUF domain R3-THE R4-TFR R7-NPG C935T + R936H + Q939E + N971T + H972F + Q975R + S1079N + N1080P + E1083G (UniProt Q14671).
T7 sequence: T2 sequence with V72N, F73Y, S252N, N253P, E256G

In assay [8] the target is T8, PUM1 PUF domain R1-QFR R2-VFQ R6-SWD S863Q + R864F + Q867R + N899V + Y900F + N1043S + Y1044W + Q1047D (UniProt Q14671).
T8 sequence: T1 sequence with N216S, Y217W, Q220D, N252S, P253N, G256E

Assay [9] deals with T9, PUM1 PUF domain R6-FRE N1043F + Y1044R + Q1047E (UniProt Q14671).
T9 sequence: T5 sequence with P180C, H181R, S216F, W217R, D220E

Assay [10] has as its target T10, PUM1 PUF domain R6-FRS N1043F + Y1044R + Q1047S (UniProt Q14671).
T10 sequence: T5 sequence with P180C, H181R, S216F, W217R, D220S

In assay [11] the target is T11, PUM1 PUF domain R6-NFW Y1044F + Q1047W (UniProt Q14671).
T11 sequence: T5 sequence with P180C, H181R, S216N, W217F, D220W

Assay [12] concerns the target T12, PUM1 PUF domain R6-RPG N1043R + Y1044P + Q1047G (UniProt Q14671).
T12 sequence: T5 sequence with P180C, H181R, S216R, W217P, D220G

In assay [13] the target is T13, PUM1 PUF domain R6-RVT N1043R + Y1044V + Q1047T (UniProt Q14671).
T13 sequence: T5 sequence with P180C, H181R, S216R, W217V, D220T

The target of assay [14] is T14, PUM1 PUF domain R6-SFV N1043S + Y1044F + Q1047V (UniProt Q14671).
T14 sequence: T5 sequence with P180C, H181R, W217F, D220V

Assay [15] has as its target T15, PUM1 PUF domain R6-SRE N1043S + Y1044R + Q1047E (UniProt Q14671).
T15 sequence: T5 sequence with P180C, H181R, W217R, D220E

Assay [16] concerns the target T16, PUM1 PUF domain R6-TFE N1043T + Y1044F + Q1047E (UniProt Q14671).
T16 sequence: T5 sequence with P180C, H181R, S216T, W217F, D220E

For assay [17], the target named is T17, PUM1 PUF domain R6-TRE N1043T + Y1044R + Q1047E (UniProt Q14671).
T17 sequence: T5 sequence with P180C, H181R, S216T, W217R, D220E

Assay [18] concerns the target T18, PUM1 PUF domain R3-THE R4-TFR C935T + R936H + Q939E + N971T + H972F + Q975R (Homo sapiens) (UniProt Q14671).
T18 sequence: T2 sequence with V72N, F73Y

Where a chain is given by its changes, count along the chain named. The list shows a part of the results. For some of these results: At the low end of the ranking the order means little. For some of these results: The source does not settle which construct or isoform was used.

As to “GGCUAGAACUAGUGGAUCCCCCGGCGCCCGGCGGCUCGAGCCCGGGUAAGUGUAAAUGGUCUGCAUGCCGCCGGGCGCCAUGCCUGCAGGUCGACUCUAGAAAACAUG”, the binding signal (log2 enrichment (interaction score)) in [1] was -5.95; in assay [2] it was -5.13; in assay [3], -6.95; in assay [4], -1.65; in assay [5] it was less than -8.42; in assay [6], -1.82.

For the sequence “GGCUAGAACUAGUGGAUCCCCCGGCGCCCGGCGGCUCGAGCCCGGGUAAGUUGAAAACGUCUGCAUGCCGCCGGGCGCCAUGCCUGCAGGUCGACUCUAGAAAACAUG”, the binding signal (log2 enrichment (interaction score)) in assay [1] was -5.65; in assay [2], -5.47; in assay [7], -2.04; in [5], -8.99; in [6], -0.5.

Consider “GGCUAGAACUAGUGGAUCCCCCGGCGCCCGGCGGCUCGAGCCCGGGUAAGUGAAAAUAGUCUGCAUGCCGCCGGGCGCCAUGCCUGCAGGUCGACUCUAGAAAACAUG”, for which the binding signal (log2 enrichment (interaction score)) is -6.09 in [8]; -6.41 in assay [1]; -5.19 in assay [2]; -5.67 in assay [3]; -2.84 in assay [5]; less than -9.4 in assay [9]. Further, the binding signal (log2 enrichment (interaction score)) in [10] was less than -8.16; in assay [11], -3.98; in assay [12], less than -9.26; in [13], less than -9.2; in assay [14], -4.81; in assay [15], -8.78. Also, the binding signal (log2 enrichment (interaction score)) in assay [6] is -0.67; in [16], -3.86; in assay [17], -6.37.

Turning to “GGCUAGAACUAGUGGAUCCCCCGGCGCCCGGCGGCUCGAGCCCGGGUAAGUUGACGACGUCUGCAUGCCGCCGGGCGCCAUGCCUGCAGGUCGACUCUAGAAAACAUG”, the binding signal (log2 enrichment (interaction score)) in [8] was -6.42; in [1] it was -5.25; in assay [2], -5.31; in assay [3] it was -7.01; in assay [4], -1.74; in assay [6] it was -0.82.

Regarding “GGCUAGAACUAGUGGAUCCCCCGGCGCCCGGCGGCUCGAGCCCGGGUAAGUGUAGGUAGUCUGCAUGCCGCCGGGCGCCAUGCCUGCAGGUCGACUCUAGAAAACAUG”, the binding signal (log2 enrichment (interaction score)) in assay [18] is -1.74.

With “GGCUAGAACUAGUGGAUCCCCCGGCGCCCGGCGGCUCGAGCCCGGGUAAGUUUAAAACGUCUGCAUGCCGCCGGGCGCCAUGCCUGCAGGUCGACUCUAGAAAACAUG”, in assay [6], the binding signal (log2 enrichment (interaction score)) was -0.63.

On to “GGCUAGAACUAGUGGAUCCCCCGGCGCCCGGCGGCUCGAGCCCGGGUAAGUUUAGAACGUCUGCAUGCCGCCGGGCGCCAUGCCUGCAGGUCGACUCUAGAAAACAUG”, for which, in assay [6], the binding signal (log2 enrichment (interaction score)) is -0.99.

For “GGCUAGAACUAGUGGAUCCCCCGGCGCCCGGCGGCUCGAGCCCGGGUAAGUGUACGUCGUCUGCAUGCCGCCGGGCGCCAUGCCUGCAGGUCGACUCUAGAAAACAUG”, the binding signal (log2 enrichment (interaction score)) in [3] was -7.07; in [4] it was -1.77.

Regarding “GGCUAGAACUAGUGGAUCCCCCGGCGCCCGGCGGCUCGAGCCCGGGUAAGUUGAAAUCGUCUGCAUGCCGCCGGGCGCCAUGCCUGCAGGUCGACUCUAGAAAACAUG”, the binding signal (log2 enrichment (interaction score)) in [4] is -1.82.

For “GGCUAGAACUAGUGGAUCCCCCGGCGCCCGGCGGCUCGAGCCCGGGUAAGUGUAAAAAGUCUGCAUGCCGCCGGGCGCCAUGCCUGCAGGUCGACUCUAGAAAACAUG”, the binding signal (log2 enrichment (interaction score)) is -6.76 in [3] and -2.96 in assay [7].
